Tested on: Human mammary cancer MCF-7 cell
Assay: Human mammary cancer MCF-7 cell growth inhibition test (neutral red)
Format: cell-based
Details: MCF7, MCF-7 cells, medium with 10^-8M estradiol, 72 hours, absorbance at 550 nm
Experimental: Human mammary cancer MCF-7 cell growth inhibition test
Each 0.1 ml of MCF-7 cells which had been prepared to 5 x 10^4/ml using a medium (referred to as Medium B hereinafter) prepared by adding 10% bovine fetal serum, 10^-8M estradiol (manufactured by Sigma), 100 units/ml penicillin and 100 µg/ml streptomycin to RPMI1640 medium was distributed in each well of 96 well-microtiter plate. The plate was cultured at 37 °C for 20 hours in a CO2 gas incubator, each 0.05 ml of samples (test compound) which had been appropriately diluted with Medium B was added thereto and the mixture was cultured at 37 °C for 72 hours in a CO2 gas incubator. Supernatant was removed, each 0.1 ml of Medium B containing 0.02% neutral red was added to the residue, the mixture was cultured at 37 °C for 1 hour in a CO2 gas incubator and the cells were stained by neutral red dye. Supernatant was removed and the residue was washed once with a physiological saline. Then, the dye was extracted with 0.001N hydrochloric acid/30% ethanol and the absorbance at 550 nm was determined with a microplatereader. Sample concentration at which the growth of cell is inhibited by 50% (IC50) was calculated by comparing the absorbance of untreated cells and sample-treated cells.

Question: How did the IC50 turn out when `CC/C(=C(\c1ccccc1)c1ccc(OCCN(C)C)cc1)c1ccccc1` [Tamoxifen] was run?
Answer: The IC50 was 23 µM.

From patent publication EP0638566B1, “5-Aminoflavone derivatives, their preparation and their use as antibacterial, anti-estrogenic and/or antitumor agent” (KYOWA HAKKO KOGYO CO., LTD., priority 1993, dated 1995)
